# Results are given in words; binding and its absence hold for the method and conditions named. Binding seen in cells or lysates may run through a third protein. A result given as binding can be weak or reduced; the word gives no strength.
# By UniProt entry, the sequences of proteins in these tests, tags left out. Where a name states a change or a piece, a line headed by the entry shows the natural chain unless it says otherwise.
# UniProt Q96EP1: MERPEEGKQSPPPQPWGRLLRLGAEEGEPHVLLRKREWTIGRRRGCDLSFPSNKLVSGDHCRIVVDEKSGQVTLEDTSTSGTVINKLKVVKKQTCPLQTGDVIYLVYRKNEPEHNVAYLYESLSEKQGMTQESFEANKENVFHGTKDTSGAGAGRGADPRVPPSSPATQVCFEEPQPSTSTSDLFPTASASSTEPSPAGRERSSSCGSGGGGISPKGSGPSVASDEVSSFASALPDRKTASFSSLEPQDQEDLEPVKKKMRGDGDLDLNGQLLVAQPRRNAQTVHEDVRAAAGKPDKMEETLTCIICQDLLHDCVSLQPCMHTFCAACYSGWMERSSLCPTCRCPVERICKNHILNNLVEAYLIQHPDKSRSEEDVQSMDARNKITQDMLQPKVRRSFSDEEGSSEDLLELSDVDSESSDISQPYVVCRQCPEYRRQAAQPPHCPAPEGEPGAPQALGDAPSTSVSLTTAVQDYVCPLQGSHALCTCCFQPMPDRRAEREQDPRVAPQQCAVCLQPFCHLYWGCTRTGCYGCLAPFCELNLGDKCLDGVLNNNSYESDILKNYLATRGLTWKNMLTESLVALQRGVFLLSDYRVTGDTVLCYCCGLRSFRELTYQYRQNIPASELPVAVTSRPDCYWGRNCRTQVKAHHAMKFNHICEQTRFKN
# Assays:
# [1] = biological target: N-terminal eGFP fused human CHFR mutant lacking poly-ADP ribose binding zinc-finger domain (human) (UniProt Q96EP1); assay: co-IP; anti-GFP agarose beads (GFP-Trap) pull-down from lysates of HMEC transfected with eGFP-CHFR constructs, 48 h after transfection; 150 ug lysate protein, 2 h at 4 C; immunoblot for endogenous VE-cadherin; ratio of VE-cadherin to GFP-CHFR quantified
# [2] = biological target: N-terminal eGFP fused human CHFR mutant lacking cysteine-rich domain (human) (UniProt Q96EP1); assay: as above
binder,measurement,setting,value
"VE-cadherin, endogenous in HMEC (protein, UniProt P33151 48-784) DWIWNQMHIDEEKNTSLPHHVGKIKSSVSRKNAKYLLKGEYVGKVFRVDAETGDVFAIERLDRENISEYHLTAVIVDKDTGENLETPSSFTIKVHDVNDNWPVFTHRLFNASVPESSAVGTSVISVTAVDADDPTVGDHASVMYQILKGKEYFAIDNSGRIITITKSLDREKQARYEIVVEARDAQGLRGDSGTATVLVTLQDINDNFPFFTQTKYTFVVPEDTRVGTSVGSLFVEDPDEPQNRMTKYSILRGDYQDAFTIETNPAHNEGIIKPMKPLDYEYIQQYSFIVEATDPTIDLRYMSPPAGNRAQVIINITDVDEPPIFQQPFYHFQLKENQKKPLIGTVLAMDPDAARHSIGYSIRRTSDKGQFFRVTKKGDIYNEKELDREVYPWYNLTVEAKELDSTGTPTGKESIVQVHIEVLDENDNAPEFAKPYQPKVCENAVHGQLVLQISAIDKDITPRNVKFKFILNTENNFTLTDNHDNTANITVKYGQFDREHTKVHFLPVVISDNGMPSRTGTSTLTVAVCKCNEQGEFTFCEDMAAQVGVSIQAVVAILLCILTITVITLLIFLRRRLRKQARAHGKSVPEIHEQLVTYDEEGGGEMDTTSYDVSVLNSVRRGGAKPPRPALDARPSLYAQVQKPPRHAPGAHGGPGEMAAMIEVKKDEADHDGDGPPYDTLHIYGYEGSESIAESLSSLGTDSSDSDVDYDFLNDWGPRFKMLAELYGSDPREELLY",binding,[1],binds
same,binding,[2],binds
